PubChem BioAssay AID1259300, Sanger Institute | 2017
The whole screen tested 794 reagents; below is a random part of them. Of all reagents, 18 (2.3%) were called active. 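Calls rest on knock-down alone, not drug synergy; depositor treated synergy scores above 0.15 as synergistic; drug doses alone had little viability effect.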 A number with no mark means an inactive call. The numbers tell different reagents against one gene apart. Viability is capped at 1. Not given: the amount of reagent, the time to read-out.

Screen: 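Kinase and colorectal-mutated gene knock-downs lowering HCT15 viability or boosting drug effects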 (primary screen)
Cell system: HCT15 colorectal cancer cells
Knock-down reagent: siRNA pool against human genes
Treatment: anchor drug or DMSO vehicle added 24 h after seeding: BYL719 1 µM, cetuximab 5 µg/ml, trametinib 10 nM; drug doses chosen to barely affect viability alone
Detection: 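Cell viability after knock-down, as fraction of non-targeting pool wells averaged over replicates, plus robust z-score for knock-down alone; synergy score per drug (BYL719 1 µM, cetuximab 5 µg/ml, trametinib 10 nM)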
Direction: viability z-score, siRNA alone: higher = more viable cells after knock-down; viability vs non-targeting, siRNA alone: higher = more viable cells; synergy score with BYL719 and synergy score with cetuximab and synergy score with trametinib: higher = stronger synergy of knock-down with drug
Hit rule: 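Called active (essential) if viability z-score with knock-down alone falls below -3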
Calls: active = essential: knock-down alone lowers viability (z below -3); inactive = no strong viability loss with knock-down alone

| Target gene | reagent | viability z-score, siRNA alone | viability vs non-targeting, siRNA alone | synergy score with BYL719 | synergy score with cetuximab | synergy score with trametinib |
| --- | --- | --- | --- | --- | --- | --- |
| TAF1L | 1 | -1.41 | 0.852 | 0.0314 | -0.148 | -0.117 |
| PRKAB1 | 1 | 0.396 | 0.983 | 0.121 | 0.0605 | 0.00373 |
| MAP3K4 | 1 | 0.167 | 0.967 | 0.13 | 0.0395 | -0.0177 |
| HSPB8 | 1 | -1.12 | 0.873 | 0.0241 | 0.00639 | -0.213 |
| STK17A | 1 | 0.625 | 1 | 0.214 | 0.0204 | 0.0132 |
| AKAP9 | 1 | 0.14 | 0.965 | 0.0926 | -0.0353 | -0.0754 |
| ILK | 1 | 0.625 | 1 | 0.0633 | 0.0662 | -0.0222 |
| ILK | 2 | 0.625 | 1 | 0.321 | 0.13 | 0.00712 |
| RFK | 1 | -0.0346 | 0.952 | 0.2 | 0.0765 | -0.0192 |
| KMT2B | 1 | -1.68 | 0.832 | -0.00673 | 0.0349 | -0.135 |
| STK26 | 1 | 0.625 | 1 | 0.0145 | 0.0873 | -0.0897 |
| PTK6 | 1 | 0.625 | 1 | -0.085 | 0.105 | -0.0803 |
| ADCK2 | 1 | 0.257 | 0.973 | 0.121 | -0.0267 | -0.115 |
| IPMK | 1 | 0.625 | 1 | 0.0998 | 0.065 | -0.0984 |
| FN1 | 1 | 0.625 | 1 | 0.223 | 0.115 | -0.0247 |
| PIK3C2B | 1 | 0.625 | 1 | 0.0173 | 0.0745 | -0.0216 |
| KIT | 1 | 0.625 | 1 | 0.142 | 0 | 0.0458 |
| ITSN1 | 1 | 0.453 | 0.988 | 0.15 | 0.0789 | 0.0237 |
| FRK | 1 | 0.625 | 1 | 0.222 | 0.096 | -0.0984 |
| GSK3A | 1 | 0.625 | 1 | 0.149 | 0.016 | 0.0425 |
| CKMT2 | 1 | 0.625 | 1 | 0.254 | 0.172 | 0.112 |
| PAPSS1 | 1 | 0.625 | 1 | -0.00999 | 0 | -0.0984 |
| GALK2 | 1 | 0.308 | 0.977 | 0.104 | 0.0351 | 0.0803 |
| STK38L | 1 | 0.625 | 1 | 0.31 | 0.00722 | 0.119 |
| NUP98 | 1 | -5.89 (active) | 0.526 | -0.000552 | -0.09 | -0.226 |
| PAK5 | 1 | 0.625 | 1 | 0.173 | 0.12 | -0.0726 |
| CDK17 | 1 | -0.968 | 0.884 | 0.148 | -0.116 | -0.162 |
| NLK | 1 | -1.28 | 0.862 | 0.109 | -0.0337 | -0.131 |
| NEK9 | 1 | 0.625 | 1 | 0.18 | 0 | -0.0107 |
| CAMK1D | 1 | 0.127 | 0.964 | 0.0157 | 0.039 | -0.0295 |
| MAP3K19 | 1 | -1.03 | 0.88 | 0.139 | -0.111 | -0.116 |
| WNK2 | 1 | 0.625 | 1 | 0.13 | 0 | -0.0984 |
| MASTL | 1 | 0.625 | 1 | 0.157 | 0.145 | -0.0527 |
| AKT2 | 1 | -0.216 | 0.939 | 0.238 | 0.00709 | 0.00498 |
| DAPK3 | 1 | -1.75 | 0.827 | 0.123 | 0.111 | -0.0337 |

Only “synergy score with cetuximab”, for 10 of the entries above:
PRKAB1 = 0.0605
MAP3K4 = 0.0395
HSPB8 = 0.00639
STK17A = 0.0204
AKAP9 = -0.0353
ILK #1 = 0.0662
ILK #2 = 0.13
RFK = 0.0765
KMT2B = 0.0349
STK26 = 0.0873

Additional reagents:
| Target gene | reagent | viability z-score, siRNA alone | viability vs non-targeting, siRNA alone | synergy score with BYL719 | synergy score with cetuximab | synergy score with trametinib |
| --- | --- | --- | --- | --- | --- | --- |
| ABL2 | 1 | 0.615 | 0.999 | 0.0385 | 0.0949 | 0.0125 |
| ADGRL2 | 1 | 0.625 | 1 | 0.0475 | 0.108 | -0.0478 |
| PNCK | 1 | 0.625 | 1 | 0.0823 | 0 | -0.0608 |
| STAG2 | 1 | 0.0828 | 0.961 | -0.121 | -0.0394 | -0.099 |
| ITPKB | 1 | 0.484 | 0.99 | 0.1 | 0.0878 | 0.19 |
| OBSCN | 1 | 0.625 | 1 | 0.238 | 0 | -0.0371 |
| CAD | 1 | 0.625 | 1 | 0.138 | 0.068 | 0.0327 |
| NTN4 | 1 | -0.76 | 0.899 | 0.0736 | 0.0182 | -0.128 |
| THNSL1 | 1 | 0.625 | 1 | 0.0277 | 0.15 | -0.0291 |
| PKIB | 1 | 0.625 | 1 | 0.0916 | 0.0293 | -0.0984 |
| FOXP1 | 1 | -1.52 | 0.844 | 0.0887 | -0.021 | -0.0189 |
| MAP3K14 | 1 | -0.502 | 0.918 | 0.277 | 0.114 | 0.187 |
| MECOM | 1 | 0.297 | 0.976 | 0.23 | 0.08 | -0.0741 |
| YES1 | 1 | 0.625 | 1 | 0.151 | 0.0614 | -0.018 |
| DTYMK | 1 | 0.625 | 1 | 0.15 | 0.0645 | -0.0284 |
| CHD4 | 1 | -3.94 (active) | 0.668 | -0.175 | -0.0822 | -0.162 |
| NAGK | 1 | -0.0341 | 0.952 | 0.161 | 0.108 | -0.0846 |
| PKLR | 1 | 0.488 | 0.99 | 0.17 | 0.0436 | -0.107 |
| TAOK2 | 1 | 0.625 | 1 | -0.085 | 0 | -0.0984 |
| SKAP1 | 1 | 0.625 | 1 | 0.147 | 0 | -0.0658 |
| TSSK4 | 1 | 0.43 | 0.986 | 0.209 | 0.135 | 0.0296 |
| TNK2 | 1 | 0.625 | 1 | 0.13 | 0.0458 | -0.0781 |
| PRKCQ | 1 | 0.619 | 1 | 0.125 | 0.0898 | 0.102 |
| IKBKB | 1 | 0.625 | 1 | 0.264 | 0.0911 | 0.0539 |
| STK38 | 1 | -0.961 | 0.885 | 0.0273 | -0.0626 | -0.073 |
| CDC42BPG | 1 | -0.247 | 0.937 | 0.066 | 0.0254 | -0.00747 |
| DLG4 | 1 | 0.625 | 1 | 0.21 | 0 | -0.0524 |
| PDGFRL | 1 | 0.625 | 1 | -0.00187 | 0.106 | -0.0653 |
